Results reported in patent US20170144972A1, “METHODS OF LOWERING PROPROTEIN CONVERTASE SUBTILISIN/KEXIN TYPE 9 (PCSK9)” (Catabasis Pharmaceuticals, Inc., priority 2012, published 2017).

System: APOE*3Leiden mice
Experiment: Plasma cholesterol and triglycerides in ApoE3Leiden mice on Western type diet, 2 and 4 weeks of treatment
Format: in vivo
Settings: female APOE*3Leiden mice, WTD, I-8 0.75% w/w in diet, atorvastatin 0.0015% w/w in diet
Protocol: The study was conducted using female APOE*3Leiden mice (groups of each n=10) and one untreated reference control group on chow (n=5). To induce dyslipidemia, a high cholesterol Western type diet containing 1% cholesterol, 15% cacao butter, 40.5% sucrose and 1% corn oil (WTD) was fed to the mice for a total experimental period of 20 weeks (of which 4 weeks are a run-in period). To prevent oxidation of the test compound (I-8), 30 mg/kg alpha-tocopherol was added to the high cholesterol diets, i.e. also in the high cholesterol diet control.
In the first 4 weeks (run-in period), a pro-atherogenic state of dyslipidemia characterized by elevated plasma cholesterol levels (about 15-20 mM) was induced in all mice by feeding them an atherogenic diet containing 1% cholesterol. The mice were then separated into a control group (no treatment) and three treatment groups: i) compound I-8, ii) atorvastatin and iii) compound I-8+atorvastatin as as described below. The dyslipidemic mice were grouped on the basis of plasma cholesterol at t=0 assayed in 4 h fasting blood. Mice with low cholesterol after the run-in period were excluded so that homogenous experimental groups were obtained. A group of reference mice (n=5) remained on a chow diet during the complete study period (normolipidemic reference mice).
The doses of the test compounds were as follows: • Compound I-8: 0.75% w/w in diet. • Atorvastatin: 0.0015% w/w in diet (to achieve about 20% reduction in plasma cholesterol). • Alpha-tocopherol: 0.0030% w/w in diet
The test compounds, sufficient for approx. 3 kg of diet (i.e. 25 g of compound I-8), and alpha-tocopherol (>200 mg) were formulated before the start of the treatment period (t=0), by adding the test compounds to melted, hand warm cocoa butter and mixed for 5 min. This mix was then added to the master mix (containing the rest of the ingredients) and mixed thoroughly. The diet was frozen to −20° C. On the subsequent day, the diet was broken into small pellets (approx 5 g per piece) and freeze dried, and stored in vacuum sealed bags (approx 500 g) at −20° C. until use. […]

Q: For `CC(C)c1c(C(=O)Nc2ccccc2)c(-c2ccccc2)c(-c2ccc(F)cc2)n1CC[C@@H](O)C[C@@H](O)CC(=O)O` [atorvastatin, reference compound], which “plasma cholesterol at t=2 weeks (FIG. 4)” value (2 weeks) is on record?
A: statistically significant reduction

Q: And the “plasma cholesterol after 4 weeks of treatment (FIG. 5)” value (4 weeks)?
A: Comparable level of cholesterol reduction

Q: And the “plasma triglyceride levels after 4 weeks of treatment (FIG. 6)” value (4 weeks)?
A: failed to show a statistically significant change
